Measured values published in article PMC12485048.
No constants are given. Whether binding was seen depends on the method and setting. Binding seen in cells or lysates may run through a third protein. Some results given as binding are weak or reduced against the parent protein; the word gives no strength.

By UniProt entry, the sequences of proteins in these tests, tags left out.
UniProt P63087: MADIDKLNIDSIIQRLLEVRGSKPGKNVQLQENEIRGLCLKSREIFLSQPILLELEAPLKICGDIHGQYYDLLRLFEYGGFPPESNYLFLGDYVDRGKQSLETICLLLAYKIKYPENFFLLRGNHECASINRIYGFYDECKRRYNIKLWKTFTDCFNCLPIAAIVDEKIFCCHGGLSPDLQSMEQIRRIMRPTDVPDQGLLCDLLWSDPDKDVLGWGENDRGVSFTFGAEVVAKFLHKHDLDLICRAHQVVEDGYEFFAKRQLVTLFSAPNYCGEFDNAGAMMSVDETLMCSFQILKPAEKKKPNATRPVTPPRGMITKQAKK

Target: T1, SH3RF2 (mouse (endogenous in striatum)) (UniProt Q8BZT2)
T1 sequence: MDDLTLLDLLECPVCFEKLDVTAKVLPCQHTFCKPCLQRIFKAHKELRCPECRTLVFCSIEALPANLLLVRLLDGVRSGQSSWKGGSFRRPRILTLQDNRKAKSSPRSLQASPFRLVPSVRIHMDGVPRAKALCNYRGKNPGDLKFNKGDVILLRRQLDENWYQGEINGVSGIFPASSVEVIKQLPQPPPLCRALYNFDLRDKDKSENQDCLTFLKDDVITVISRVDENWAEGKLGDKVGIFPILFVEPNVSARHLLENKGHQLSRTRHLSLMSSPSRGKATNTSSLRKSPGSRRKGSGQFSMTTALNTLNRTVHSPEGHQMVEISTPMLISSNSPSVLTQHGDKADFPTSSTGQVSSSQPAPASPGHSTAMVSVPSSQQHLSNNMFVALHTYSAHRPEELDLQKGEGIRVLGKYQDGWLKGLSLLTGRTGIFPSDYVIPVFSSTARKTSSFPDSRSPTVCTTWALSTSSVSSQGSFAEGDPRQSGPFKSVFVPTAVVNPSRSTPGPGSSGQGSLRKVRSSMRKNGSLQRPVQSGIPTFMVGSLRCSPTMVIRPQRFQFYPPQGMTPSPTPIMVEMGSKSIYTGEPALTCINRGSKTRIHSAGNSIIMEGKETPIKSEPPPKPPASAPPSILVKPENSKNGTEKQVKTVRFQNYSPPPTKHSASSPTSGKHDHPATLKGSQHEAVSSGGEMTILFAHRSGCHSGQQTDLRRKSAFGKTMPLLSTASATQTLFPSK
Assay: co-IP; endogenous proteins in mouse striatum lysate (20 mM Tris-HCl pH 7.4, 50 mM NaCl, 0.5% NP-40, 10 mM HEPES, 0.5 mM EDTA); 2 μg primary antibody on Protein A/G or Protein G magnetic beads, lysate at 4 °C overnight; western blot; for CaMKII–PPP1CC, WT and Sh3rf2 KO striatum compared

binding: binds
Substance: PP1 catalytic subunit gamma (PPP1CC) (from UniProt P63087 1-323) (enzyme)
